Test results reported in US7208273B2, “Common polymorphism in scn5a implicated in drug-induced cardiac arrhythmia” (University of Utah Research Foundation, priority 2000, dated 2007).

Test system: African-American individuals with SCN5A variant S1103Y
Settings: in vivo

## CCCCc1oc2ccccc2c1C(=O)c1cc(I)c(OCCN(CC)CC)c(I)c1 [amiodarone]
  arrhythmia after drug treatment: experienced arrhythmia
